# From PubChem BioAssay AID540256 (National Center for Advancing Translational Sciences (NCATS), 2011)
# In all, about 300,000 compounds went through this assay and about 3,700 (1.2%) were called active. The shares of active, inactive and inconclusive entries below differ from those in the screen. Calls follow the shape of the full dose curve; tested in HEK293 cells. A potency beside an inconclusive call is a rough fit, not a confirmed value.
# Assay: qHTS for Inhibitors of binding or entry into cells for Lassa Virus; also: nearly all actives have a fitted effect of over 50% in size
# Details: Lassa virus pseudotype entry inhibition, cell reporter; series mostly up to 37.9 µM
# Potency is read from the fitted curve at half-maximal effect.
row,Compound,Potency
1,COc1ccc2c(c1OC)C(=O)OC2Nc1nc(-c2cc3cc(Br)ccc3oc2=O)cs1 (centres undefined),inactive
2,CC(C)C(=O)Nc1nnc(S(=O)(=O)N2CCCCCC2)s1,"inconclusive: 2.82 µM [inhibitor, single point]"
3,O=c1c2cc3c(nc2[nH]c(=S)n1-c1ccccc1)CCCC3,inactive
4,COC(=O)Cn1c(=NC(=O)CSCC(=O)NC2CCCCC2)sc2cc(OC)ccc21,"inconclusive: 2 µM [inhibitor, full curve]"
5,N/C(=N\OC(=O)Cc1cccs1)c1cccc([N+](=O)[O-])c1,"inconclusive: 6.51 µM [activator, partial curve]"
6,COc1cc(CCC(=O)Nc2c(C(=O)N3CCN(c4ccccc4)CC3)oc3ccccc23)on1,"inconclusive: 3.55 µM [inhibitor, full curve]"
7,COc1ccc(N2CC3=C(C2=O)C(c2ccc(O)c(OC)c2)NC(=O)N3C)cc1 (centres undefined),inactive
8,COc1ccccc1NC(=O)c1cc(S(=O)(=O)NCc2ccccc2)ccc1F,"inconclusive: 2 µM [inhibitor, full curve, poor fit]"
9,CC1(C)CC2CC(C)(CN2C(=S)Nc2ccccc2F)C1 (centres undefined),inactive
10,CN(C)C=NC(=O)c1ccc([N+](=O)[O-])c(CS(=O)(=O)c2ccc(Cl)cc2)c1,"inconclusive: 11.2 µM [inhibitor, single point]"
11,Cc1ccc(S(=O)(=O)Oc2cccc(/C=N/n3cnnc3)c2)cc1,"inconclusive: 11.2 µM [inhibitor, partial curve, poor fit]"
12,C=CC(N)CCC(=O)O (centres undefined),"inconclusive: 25.9 µM [activator, partial curve, poor fit]"
13,O=C(Nc1ccc(-c2nc3ccccc3s2)c(O)c1)C1=COCCO1,"inconclusive: 10 µM [inhibitor, partial curve]"
14,COc1cccc(CNC(=O)c2sc3nc4n(c(=O)c3c2C)CCC4)c1,inactive
15,O=C(NCCc1cccs1)c1ccc(Cn2c(SCc3ccccc3)nc3cccnc32)cc1,inactive
16,CC(C)CNC(=S)N1CCC(Cc2ccccc2)CC1,"inconclusive: 35.5 µM [inhibitor, single point]"
17,CCOC(=O)C(NC(=O)NCc1ccccc1)(OCC)C(F)(F)F (centres undefined),"inconclusive: 12.6 µM [inhibitor, partial curve, poor fit]"
18,CC(=O)Nc1ccc(NC(=O)C(C)OC(=O)CCN=C2NS(=O)(=O)c3ccccc32)cc1 (centres undefined),"inconclusive: 0.224 µM [inhibitor, full curve, poor fit]"
19,Cc1oc2c(c1C(=O)Nc1ccccc1Br)C1=NCCN1C=N2,inactive
20,Cc1ccc(Cn2c(=O)n(CC3CCC(C(=O)N4CCC(C)CC4)CC3)c(=O)c3sccc32)cc1 (centres undefined),inactive
21,COc1ccccc1NS(=O)(=O)c1cc(C(=O)NCc2ccncc2)ccc1C,"inconclusive: 0.199 µM [activator, full curve, poor fit]"
22,Cc1ccc(N(Cc2cccs2)C(=O)Nc2cccc(Cl)c2)cc1,inactive
23,CCOc1ccc(NC(=S)Nc2ccc3nsnc3c2)cc1,inactive

# Random excerpt: two entries already listed, in no set order.
row,Compound,Potency
4,COC(=O)Cn1c(=NC(=O)CSCC(=O)NC2CCCCC2)sc2cc(OC)ccc21,"inconclusive: 2 µM [inhibitor, full curve]"
15,O=C(NCCc1cccs1)c1ccc(Cn2c(SCc3ccccc3)nc3cccnc32)cc1,inactive

# Next part:

row,Compound,Potency
1,COc1ccc(Nc2ncnc3scc(-c4ccc(OC)cc4)c23)cc1,"inconclusive: 3.16 µM [inhibitor, full curve, poor fit]"
2,CCc1cc(C(=O)NNC(=O)CCl)sc1C,"inconclusive: 16.4 µM [inhibitor, single point]"
3,Cc1cc(C(=O)OCC(=O)Nc2ccc(S(N)(=O)=O)cc2)c2ccccc2n1,inactive
4,CCOCCc1nn2c(=O)cc(CSCC(=O)Nc3cc(C)cc(C)c3)nc2s1,"inconclusive: 28.2 µM [activator, single point]"
5,O=C(NC(=S)Nc1ccc2c(c1)OCCO2)c1ccccc1F,"inconclusive: 11.2 µM [inhibitor, single point]"
6,CC(=O)Nc1ccc(S(=O)(=O)NCc2csc(-c3cccnc3)n2)cc1,"inconclusive: 35.5 µM [inhibitor, partial curve, poor fit]"
7,CN(c1ccc(Cl)cc1)c1cc2c(c3c1ccn3C)C1CCC2O1 (centres undefined),"inconclusive: 0.0353 µM [inhibitor, full curve]"
8,O=C(Nc1nnc(-c2ccc(Cl)cc2)o1)Nc1ccccc1Cl,"inconclusive: 23.1 µM [activator, partial curve, poor fit]"
9,CCN(C(=O)Cn1c(=O)oc2ccccc21)c1cccc(C)c1,"inconclusive: 7.94 µM [activator, partial curve, poor fit]"
10,CNC(=O)c1sc(-c2ccc(Cl)cc2)nc1C,"inconclusive: 0.794 µM [activator, full curve]"
11,COCCCNC(=O)c1cc(-c2ccc(OC)cc2)nc2n[nH]c(-c3ccc(Cl)cc3)c12,inactive
12,CC(Sc1nc(N2CCOCC2)c2c(c1C#N)CC(C)(C)OC2)C(=O)Nc1ccccc1 (centres undefined),inactive
13,CCOc1ccc(N=c2cc(-c3ccc(OC)cc3)oc3ccccc23)cc1,"inconclusive: 35.5 µM [inhibitor, single point]"
14,O=c1c2ccccc2nnn1COc1ccc(Cl)cc1Br,"inconclusive: 12.6 µM [activator, single point]"
15,COc1ccc(C(=O)NC(=O)Nc2ncccc2C)cc1,"inconclusive: 5.17 µM [activator, partial curve, poor fit]"
16,CC(C)Cn1c(N)c(C(=O)COC(=O)/C=C/c2cccs2)c(=O)n(C)c1=O,"inconclusive: 35.5 µM [inhibitor, single point]"
17,CS(=O)(=O)c1nc(-c2ccc(F)cc2)cc(C(F)(F)F)n1,"inconclusive: 5.01 µM [inhibitor, full curve, poor fit]"
18,CN(N=O)c1ccc(C=C2C=Cc3ccccc32)cc1,"inconclusive: 1.12 µM [activator, full curve, poor fit]"
19,Cc1ccc(NC(=O)CNC(=O)c2ccccc2F)cc1Cl,"inconclusive: 29.1 µM [activator, single point]"
20,c1ccc(-n2nnnc2-c2cnc(-c3cccnc3)nc2-c2cccs2)cc1,"inconclusive: 29.1 µM [inhibitor, single point]"
21,N#C/C(C(=O)N1CCCCC1)=C1/N=C(N)c2ccccc21,"inconclusive: 0.794 µM [inhibitor, single point]"
22,CCOc1ccc2c(c1)-c1c(ssc1=S)C(C)(C)N2C,inactive
23,O=C(N/N=C/c1cccs1)c1cc(-c2ccncc2)nc2ccccc12,"inconclusive: 0.517 µM [inhibitor, full curve, poor fit]"

# Compounds from the list above containing an aryl thioether with sulfur outside any ring (2):
row,Compound,Potency
15,O=C(NCCc1cccs1)c1ccc(Cn2c(SCc3ccccc3)nc3cccnc32)cc1,inactive
12,CC(Sc1nc(N2CCOCC2)c2c(c1C#N)CC(C)(C)OC2)C(=O)Nc1ccccc1 (centres undefined),inactive

# (list continues)

row,Compound,Potency
1,O=C(O)c1ccc(-c2ccc(Cl)cc2Cl)o1,"inconclusive: 1.3 µM [activator, partial curve, poor fit]"
2,CCN(C(=O)COC(=O)/C=C/c1ccccc1)C1CCCCC1,"inconclusive: 0.631 µM [inhibitor, single point]"
3,CC(OC(=O)c1cc(O)c2ccccc2c1O)C(=O)Nc1ccc(C(N)=O)cc1 (centres undefined),"inconclusive: 8.91 µM [inhibitor, partial curve, poor fit]"
4,COC(=O)c1[nH]c2ccc(C)cc2c1NC(=O)CN1CCN(c2ccccc2)CC1,"inconclusive: 5.8 µM [inhibitor, full curve]"
5,CCOC(=O)c1c(-c2ccc(C)o2)csc1NC(=S)NC(=O)c1cccs1,active: 23.1 µM
6,CCCC/C=C/C(NC(=O)CCc1ccccc1)c1ccccc1 (centres undefined),inactive
7,COc1ccccc1Oc1nc2ccccn2c(=O)c1/C=C(\C#N)C(=O)Nc1c(C)n(C)n(-c2ccccc2)c1=O,"inconclusive: 5.62 µM [inhibitor, full curve, poor fit]"
8,CCC1(C)Cc2c(sc3nc(SC)[nH]c(=S)c23)CO1 (centres undefined),"inconclusive: 35.5 µM [activator, single point]"
9,O=C(O)/C=C/C(=O)Nc1ccc(N2CCOCC2)nc1N1CCOCC1,inactive
10,O=S(=O)(CCNCc1ccc(-c2ccc3ncnc(Nc4ccc(OCc5cccc(F)c5)c(Cl)c4)c3c2)o1)c1ccccc1,"inconclusive: 0.0089 µM [inhibitor, full curve, poor fit]"
11,O=C(COc1ccccc1Cl)Nc1ccccc1C(=O)N1CCOCC1,inactive
12,COc1ccc(NC(=O)c2cc3c(Cl)nc4ccccc4c3s2)c(OC)c1,inactive
13,CCC(C)C(=O)Nc1cc([N+](=O)[O-])ccc1Cl (centres undefined),"inconclusive: 0.891 µM [activator, single point]"
14,Cc1noc(C)c1S(=O)(=O)N1CCC(C(=O)N2CCC(C)CC2)CC1,"inconclusive: 1.12 µM [inhibitor, full curve]"
15,CN(C)S(=O)(=O)c1ccc(/C(O)=C2/C(=O)C(=O)N(CCCN3CCOCC3)C2c2ccncc2)cc1 (centres undefined),inactive
16,CCN(CC)CCn1c(C)nc2ccccc21,inactive
17,Cc1cc(OCCn2cc(C(=O)c3cccs3)c3ccccc32)ccc1Cl,"inconclusive: 6.31 µM [inhibitor, single point]"
18,Cc1ccccc1NC(=S)NNc1ncc(C(F)(F)F)cc1Cl,inactive
19,Cc1cc(C)c2nc(-c3cccc(Cl)c3)c(C)c(C(=O)N3CCOCC3)c2c1,"inconclusive: 35.5 µM [inhibitor, single point]"
20,CCOC(=O)c1c(C)n(-c2ccccc2)c2ccc(O)c(CN(C)C)c12,"inconclusive: 11.2 µM [inhibitor, partial curve, poor fit]"
21,CC(=O)N1CCc2cc(S(=O)(=O)CCC(=O)Nc3cccc(F)c3)ccc21,"inconclusive: 1.41 µM [inhibitor, partial curve, poor fit]"
22,Cc1ccc(NC(=O)c2ccccc2Cl)cc1-n1cnnn1,inactive
23,CC(=O)N1CCc2cc(CNC(=O)Cc3ccc(F)cc3)ccc21,inactive
